Drawing on patent US11965026, this text covers binding for two molecules.

Chains of the proteins cited; added tags and fusions are not shown. Lines headed by an entry give the natural chain unless they say otherwise; changes in a name come on top.
UniProt Q9NZQ7: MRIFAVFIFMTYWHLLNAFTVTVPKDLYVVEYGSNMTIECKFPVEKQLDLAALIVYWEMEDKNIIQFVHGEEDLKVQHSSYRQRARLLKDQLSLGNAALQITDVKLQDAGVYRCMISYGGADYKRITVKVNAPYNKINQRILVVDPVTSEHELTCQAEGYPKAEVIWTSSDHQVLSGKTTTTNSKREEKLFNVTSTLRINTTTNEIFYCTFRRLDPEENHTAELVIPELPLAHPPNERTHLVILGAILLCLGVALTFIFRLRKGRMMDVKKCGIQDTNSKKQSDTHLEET

No constants are given. Whether binding was seen depends on the method and setting. Some binding calls cover weakened binding; strength is not graded here.

The target in assay [1] is cynomolgus PD-L1 expressed on CHO-S cells (cynomolgus monkey). Description: flow cytometry on CHO-S cells transfected with cynomolgus PD-L1. A general note: Flow cytometry measures light scatter and fluorescence of single cells or particles in a stream.
The target in a further assay is Human PD-L1 His (human) (UniProt Q9NZQ7). Description: SPR 25C and 37C.

B1: 416E01 (antibody, V domains shown)
VH: EVQLAESGGGLVQPGGSLRLSCAASGFTFSNYAMSWVRQTPGKGLEWVSAISFSGGTTYYADSVKGRFTISRDNSKNTLYLHMNSLRADDTAVYYCAKDEAPAGATFFDSWGQGTLVTVSS
VL: DIQMTQSPSSVSASVGDRVTITCRASQGIRRWLAWYQQKPGKAPKLLISGASSLQSGVPSRFSGSGSGTDFTLIITSLQPEDFATYYCQQANSFPITFGQGTRLEIK
Consider B1, for which the binding result (in assay [1]; with Human PD-L1 His (human)) was “binds” throughout.

B2: 413G05 (antibody, human IgG1, kappa, V domains shown)
VH: QVQLVESGGGLVKPGGSLRLSCAASGFTFSDYYMSWIRQVPGKGLEWVSYISTSGSTIYYADSVKGRFTISRDNAKNSLYLQMNSLRAEDAAVYHCARGITGTNFYHYGLGVWGQGTTVTVSS
VL: DIQMTQSPSSVSASVGDRVTITCRASQGINSWLAWYQQKPGKAPKLLIYAASTLQSGVPSRFSGSGSGADFTLTISSLQPEDFATYYCQQVNSFPLTFGGGTKVEIKR
In the case of B2, the binding result (in assay [1]; in the assay with Human PD-L1 His (human)) was “binds” throughout.
